Results on seven substances are retold here after article PMC9629621.

Amino acid sequences for entries named in this document (tags omitted). A change or cut given only in a name is not applied to a line headed by its entry.
UniProt P54198: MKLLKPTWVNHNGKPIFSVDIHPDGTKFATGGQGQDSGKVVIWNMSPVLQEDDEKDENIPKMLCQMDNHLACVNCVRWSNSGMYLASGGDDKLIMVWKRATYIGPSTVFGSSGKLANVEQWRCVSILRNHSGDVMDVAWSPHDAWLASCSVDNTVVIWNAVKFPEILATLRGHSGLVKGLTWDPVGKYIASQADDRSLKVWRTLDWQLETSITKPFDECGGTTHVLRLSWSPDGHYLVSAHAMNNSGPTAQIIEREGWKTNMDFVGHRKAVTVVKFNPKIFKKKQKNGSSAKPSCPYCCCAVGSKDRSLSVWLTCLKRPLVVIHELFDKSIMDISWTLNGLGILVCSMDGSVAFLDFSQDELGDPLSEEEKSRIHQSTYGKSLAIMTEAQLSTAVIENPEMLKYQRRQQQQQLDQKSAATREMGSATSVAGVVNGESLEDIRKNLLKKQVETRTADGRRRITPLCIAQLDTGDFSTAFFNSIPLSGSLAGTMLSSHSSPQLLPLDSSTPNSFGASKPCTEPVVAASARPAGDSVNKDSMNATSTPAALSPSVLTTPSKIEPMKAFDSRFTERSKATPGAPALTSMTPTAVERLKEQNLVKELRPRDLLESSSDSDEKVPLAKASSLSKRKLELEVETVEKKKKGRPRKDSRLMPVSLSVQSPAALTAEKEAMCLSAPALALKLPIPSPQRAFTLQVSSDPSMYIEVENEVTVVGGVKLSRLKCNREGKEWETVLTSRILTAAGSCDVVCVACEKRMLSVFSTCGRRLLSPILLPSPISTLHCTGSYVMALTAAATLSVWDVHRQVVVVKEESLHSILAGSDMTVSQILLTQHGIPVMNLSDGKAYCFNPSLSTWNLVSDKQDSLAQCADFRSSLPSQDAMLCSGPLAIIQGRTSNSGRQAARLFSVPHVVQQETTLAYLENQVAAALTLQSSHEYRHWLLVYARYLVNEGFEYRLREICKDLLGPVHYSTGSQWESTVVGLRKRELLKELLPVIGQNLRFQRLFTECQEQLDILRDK
UniProt Q9H081: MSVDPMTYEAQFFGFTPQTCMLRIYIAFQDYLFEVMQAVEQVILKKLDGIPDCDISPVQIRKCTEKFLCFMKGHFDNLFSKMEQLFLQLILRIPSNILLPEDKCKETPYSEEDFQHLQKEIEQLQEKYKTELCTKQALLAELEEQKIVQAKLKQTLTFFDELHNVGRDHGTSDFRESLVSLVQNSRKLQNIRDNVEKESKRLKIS
UniProt P10591: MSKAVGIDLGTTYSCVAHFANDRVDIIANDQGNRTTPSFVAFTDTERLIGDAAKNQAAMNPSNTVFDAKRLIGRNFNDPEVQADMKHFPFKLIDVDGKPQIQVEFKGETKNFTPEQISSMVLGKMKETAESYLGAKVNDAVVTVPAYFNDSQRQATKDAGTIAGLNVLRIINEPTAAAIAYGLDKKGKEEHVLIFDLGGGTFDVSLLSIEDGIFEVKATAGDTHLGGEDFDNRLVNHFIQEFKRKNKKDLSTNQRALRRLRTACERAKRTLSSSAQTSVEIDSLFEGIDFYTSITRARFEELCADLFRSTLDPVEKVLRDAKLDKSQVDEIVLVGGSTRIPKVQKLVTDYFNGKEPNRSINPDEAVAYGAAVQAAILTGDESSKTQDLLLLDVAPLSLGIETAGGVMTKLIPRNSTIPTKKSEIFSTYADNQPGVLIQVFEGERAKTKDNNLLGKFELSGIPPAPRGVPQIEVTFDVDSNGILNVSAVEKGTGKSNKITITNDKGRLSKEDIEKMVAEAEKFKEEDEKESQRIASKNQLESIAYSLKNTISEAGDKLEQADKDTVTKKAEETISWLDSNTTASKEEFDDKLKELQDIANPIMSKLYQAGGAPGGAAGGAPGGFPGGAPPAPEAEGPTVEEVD
UniProt P47079: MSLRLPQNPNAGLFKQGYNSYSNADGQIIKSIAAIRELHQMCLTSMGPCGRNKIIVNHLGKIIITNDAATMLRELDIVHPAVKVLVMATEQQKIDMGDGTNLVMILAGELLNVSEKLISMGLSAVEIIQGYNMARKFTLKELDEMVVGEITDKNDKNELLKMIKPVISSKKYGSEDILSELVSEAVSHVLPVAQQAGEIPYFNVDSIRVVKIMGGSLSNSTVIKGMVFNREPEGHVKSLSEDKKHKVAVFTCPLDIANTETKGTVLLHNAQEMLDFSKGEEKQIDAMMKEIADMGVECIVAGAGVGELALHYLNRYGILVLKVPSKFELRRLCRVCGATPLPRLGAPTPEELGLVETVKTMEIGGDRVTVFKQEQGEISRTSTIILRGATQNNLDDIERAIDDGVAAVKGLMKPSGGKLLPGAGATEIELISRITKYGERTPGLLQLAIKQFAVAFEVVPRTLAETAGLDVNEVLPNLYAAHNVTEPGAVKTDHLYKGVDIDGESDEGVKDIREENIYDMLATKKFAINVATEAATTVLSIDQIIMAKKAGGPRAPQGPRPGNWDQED
UniProt Q92598: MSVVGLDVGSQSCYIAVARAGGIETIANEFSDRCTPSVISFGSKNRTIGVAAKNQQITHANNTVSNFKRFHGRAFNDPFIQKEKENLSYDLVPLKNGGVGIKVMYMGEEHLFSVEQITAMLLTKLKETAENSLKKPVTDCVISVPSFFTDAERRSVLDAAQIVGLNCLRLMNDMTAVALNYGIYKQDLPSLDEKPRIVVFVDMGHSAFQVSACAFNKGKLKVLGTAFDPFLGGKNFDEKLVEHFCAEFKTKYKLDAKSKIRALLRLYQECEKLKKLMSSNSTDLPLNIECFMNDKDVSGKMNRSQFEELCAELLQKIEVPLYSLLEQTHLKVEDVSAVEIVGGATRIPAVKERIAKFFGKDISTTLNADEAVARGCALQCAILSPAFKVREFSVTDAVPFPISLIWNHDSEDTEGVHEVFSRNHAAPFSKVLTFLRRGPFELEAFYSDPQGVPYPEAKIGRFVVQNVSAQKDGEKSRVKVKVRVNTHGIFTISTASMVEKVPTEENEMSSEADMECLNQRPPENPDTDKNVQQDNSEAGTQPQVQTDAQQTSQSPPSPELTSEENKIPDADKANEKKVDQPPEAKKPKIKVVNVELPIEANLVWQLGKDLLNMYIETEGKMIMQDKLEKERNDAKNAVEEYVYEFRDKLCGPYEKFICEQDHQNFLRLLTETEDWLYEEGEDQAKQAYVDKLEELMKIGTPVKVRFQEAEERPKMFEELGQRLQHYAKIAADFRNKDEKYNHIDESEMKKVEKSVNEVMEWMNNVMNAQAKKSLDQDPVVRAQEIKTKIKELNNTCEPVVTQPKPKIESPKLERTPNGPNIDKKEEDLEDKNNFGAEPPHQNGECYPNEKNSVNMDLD
UniProt P11142: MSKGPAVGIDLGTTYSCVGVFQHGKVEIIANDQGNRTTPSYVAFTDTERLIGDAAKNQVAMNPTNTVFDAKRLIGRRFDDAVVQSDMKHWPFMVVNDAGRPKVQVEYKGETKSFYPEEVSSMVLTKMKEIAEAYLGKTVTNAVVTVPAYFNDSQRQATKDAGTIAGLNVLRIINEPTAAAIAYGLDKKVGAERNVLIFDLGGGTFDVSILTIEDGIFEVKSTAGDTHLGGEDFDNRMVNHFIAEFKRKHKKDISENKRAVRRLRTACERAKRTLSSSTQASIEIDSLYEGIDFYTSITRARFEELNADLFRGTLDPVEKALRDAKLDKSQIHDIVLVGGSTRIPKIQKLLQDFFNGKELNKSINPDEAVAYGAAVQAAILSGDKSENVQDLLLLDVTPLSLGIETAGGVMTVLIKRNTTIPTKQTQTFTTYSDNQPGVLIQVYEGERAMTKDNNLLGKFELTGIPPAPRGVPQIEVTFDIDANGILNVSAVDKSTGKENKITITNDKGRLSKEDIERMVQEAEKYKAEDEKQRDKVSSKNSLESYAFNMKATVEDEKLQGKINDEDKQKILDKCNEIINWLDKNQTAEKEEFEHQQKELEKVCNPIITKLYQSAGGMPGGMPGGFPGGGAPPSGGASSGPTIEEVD

No constants are given. Whether binding was seen depends on the method and setting. Binding seen in cells or lysates may run through a third protein. Some entries that bind do so weakly or less than the wild type. For some assays here: Sequences can lack the tags named with a protein.

In one assay the target is HA-HIRA (human) (UniProt P54198). Put plainly: co-IP; HEK293 cells transfected with HA-HIRA, 24 h; complexes purified on HA-magnetic beads; western blot.
A further assay deals with Mis12-GFP (UniProt Q9H081). Description: co-IP; HEK293 cells transfected with Mis12-GFP, 24 h; complexes isolated on GFP-TRAP beads; western blot.
For another assay, the target named is T1, FLAG-Lonp-1 (UniProt P36776).
T1 sequence: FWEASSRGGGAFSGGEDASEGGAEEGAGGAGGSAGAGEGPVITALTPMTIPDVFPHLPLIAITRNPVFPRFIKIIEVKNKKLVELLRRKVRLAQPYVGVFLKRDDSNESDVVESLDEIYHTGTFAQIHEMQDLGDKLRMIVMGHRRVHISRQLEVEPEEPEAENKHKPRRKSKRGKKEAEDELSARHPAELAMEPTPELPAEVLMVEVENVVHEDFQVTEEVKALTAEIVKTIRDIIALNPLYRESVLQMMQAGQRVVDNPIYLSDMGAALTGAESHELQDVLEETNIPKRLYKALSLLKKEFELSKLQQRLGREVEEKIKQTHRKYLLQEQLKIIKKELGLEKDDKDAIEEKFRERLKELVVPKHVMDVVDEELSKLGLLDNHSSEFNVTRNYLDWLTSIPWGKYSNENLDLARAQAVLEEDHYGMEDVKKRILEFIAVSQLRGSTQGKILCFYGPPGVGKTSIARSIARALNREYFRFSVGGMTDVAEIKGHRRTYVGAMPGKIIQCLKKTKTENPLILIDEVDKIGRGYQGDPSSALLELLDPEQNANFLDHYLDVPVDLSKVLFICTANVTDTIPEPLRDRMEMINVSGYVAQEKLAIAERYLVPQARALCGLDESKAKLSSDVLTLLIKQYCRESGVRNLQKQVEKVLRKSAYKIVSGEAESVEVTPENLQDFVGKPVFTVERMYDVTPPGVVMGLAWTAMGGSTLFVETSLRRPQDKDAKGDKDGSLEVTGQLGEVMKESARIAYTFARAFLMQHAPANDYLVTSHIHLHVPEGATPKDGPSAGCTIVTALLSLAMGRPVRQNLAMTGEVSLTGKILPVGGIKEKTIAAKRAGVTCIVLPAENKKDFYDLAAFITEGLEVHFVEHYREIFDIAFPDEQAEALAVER
Put plainly: co-IP; HEK293 cells transfected with FLAG-Lonp-1, 24 h; complexes isolated on FLAG Dynabeads; western blot.

Assay [1] has as its target HIS-tagged Ssa1 (yeast Hsp70) (S. cerevisiae) (UniProt P10591). Description: cross-linking; XL-MS: about 150 ug of His-Ssa1 complex purified from yeast (His-Trap), cross-linked with 5 mM DSSO, room temperature, 1 h; trypsin digest, LC-MS with MS2/MS3; filtered for cross-linked peptides with at least one Ssa1 peptide.
Assay [2] addresses FLAG-Ssa1 V435F (substrate-binding deficient mutant) (S. cerevisiae) (UniProt P10591). Put plainly: co-IP; yeast extract (200 ug) on anti-Flag M2 magnetic beads, 4°C overnight; 50 mM Na-phosphate pH 8.0, 300 mM NaCl, 0.01% Tween-20; eluted with 3x FLAG peptide; western blot.
Assay [3] concerns the target Hir2 (immunoprecipitated from yeast) (S. cerevisiae) (UniProt P32480). Description: co-IP; Co-IP of Hir1 and Hir2 from yeast followed by immunoblotting for chaperones (Fig 4C); beads and tag not told for this panel.
Assay [4] concerns the target T2, Mtw1-FLAG (S. cerevisiae) (UniProt P39731).
T2 sequence: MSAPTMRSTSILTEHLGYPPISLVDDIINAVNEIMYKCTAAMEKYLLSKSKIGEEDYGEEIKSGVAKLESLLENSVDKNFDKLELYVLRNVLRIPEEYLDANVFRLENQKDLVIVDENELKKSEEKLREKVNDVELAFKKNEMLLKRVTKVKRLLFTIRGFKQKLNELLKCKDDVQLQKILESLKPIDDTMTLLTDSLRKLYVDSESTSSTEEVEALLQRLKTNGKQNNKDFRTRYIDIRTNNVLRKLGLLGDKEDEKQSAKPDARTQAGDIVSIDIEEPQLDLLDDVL
Description: co-IP; yeast extract (200 ug) on anti-Flag M2 magnetic beads, 4°C overnight; 50 mM Na-phosphate pH 8.0, 300 mM NaCl, 0.01% Tween-20; eluted with 3x FLAG peptide; western blot.

The target in assay [5] is T3, Ura8 with an HA epitope tag at the carboxy terminus (S. cerevisiae) (UniProt P38627).
T3 sequence: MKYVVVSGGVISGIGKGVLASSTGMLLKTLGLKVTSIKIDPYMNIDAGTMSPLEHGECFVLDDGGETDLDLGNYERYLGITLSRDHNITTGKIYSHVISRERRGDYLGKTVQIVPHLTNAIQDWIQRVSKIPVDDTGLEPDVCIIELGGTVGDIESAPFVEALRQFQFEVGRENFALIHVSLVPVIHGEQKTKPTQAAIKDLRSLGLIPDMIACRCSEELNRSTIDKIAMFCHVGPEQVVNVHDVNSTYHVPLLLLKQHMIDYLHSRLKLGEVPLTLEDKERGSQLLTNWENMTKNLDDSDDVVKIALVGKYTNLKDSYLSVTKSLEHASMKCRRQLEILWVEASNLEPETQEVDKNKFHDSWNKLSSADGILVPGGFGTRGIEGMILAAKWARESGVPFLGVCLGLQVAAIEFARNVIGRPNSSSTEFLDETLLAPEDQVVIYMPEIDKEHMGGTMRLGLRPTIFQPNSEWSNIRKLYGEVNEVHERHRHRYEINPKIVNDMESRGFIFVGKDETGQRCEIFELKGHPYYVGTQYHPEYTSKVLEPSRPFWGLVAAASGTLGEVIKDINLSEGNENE
Description: co-IP; yeast extract (200 ug) on anti-HA magnetic beads, 4°C, 30 min; 50 mM Na-phosphate pH 8.0, 300 mM NaCl, 0.01% Tween-20; western blot.

Assay [6] has as its target T4, Sse1 with an HA epitope tag at the carboxy terminus (S. cerevisiae) (UniProt P32589).
T4 sequence: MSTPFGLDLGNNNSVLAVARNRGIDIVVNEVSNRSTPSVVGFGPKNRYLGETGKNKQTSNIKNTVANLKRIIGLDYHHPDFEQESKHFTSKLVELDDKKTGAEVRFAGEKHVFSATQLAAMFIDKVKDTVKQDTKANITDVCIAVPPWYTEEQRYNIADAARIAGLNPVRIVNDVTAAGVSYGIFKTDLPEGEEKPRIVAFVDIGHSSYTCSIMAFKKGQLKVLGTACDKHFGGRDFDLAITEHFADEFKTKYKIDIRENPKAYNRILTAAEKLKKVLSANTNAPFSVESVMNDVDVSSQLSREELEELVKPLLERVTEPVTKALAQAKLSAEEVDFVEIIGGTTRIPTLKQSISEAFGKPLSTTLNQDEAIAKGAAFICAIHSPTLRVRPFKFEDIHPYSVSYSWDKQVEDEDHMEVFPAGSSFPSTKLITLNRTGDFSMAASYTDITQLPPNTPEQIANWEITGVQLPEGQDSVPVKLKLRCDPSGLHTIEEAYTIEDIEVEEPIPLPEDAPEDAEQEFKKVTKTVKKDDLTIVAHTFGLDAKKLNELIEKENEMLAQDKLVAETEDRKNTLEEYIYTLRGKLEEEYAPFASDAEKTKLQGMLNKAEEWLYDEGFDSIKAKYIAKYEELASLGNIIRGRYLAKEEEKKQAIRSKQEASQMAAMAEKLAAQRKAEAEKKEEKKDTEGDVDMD
The assay is described as above.

In assay [7] the target is T5, Pcl7 with an HA epitope tag at the carboxy terminus (S. cerevisiae) (UniProt P40186).
T5 sequence: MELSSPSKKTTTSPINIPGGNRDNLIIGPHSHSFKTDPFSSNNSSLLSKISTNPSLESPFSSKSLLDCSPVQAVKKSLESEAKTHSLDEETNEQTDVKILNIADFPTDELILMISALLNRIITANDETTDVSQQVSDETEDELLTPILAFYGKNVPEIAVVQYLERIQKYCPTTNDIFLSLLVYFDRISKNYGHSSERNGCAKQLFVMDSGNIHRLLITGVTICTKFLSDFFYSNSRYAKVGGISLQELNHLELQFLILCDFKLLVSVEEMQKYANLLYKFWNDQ
The description is as above.

Assay [8] addresses Cct8 with an HA epitope tag at the carboxy terminus (S. cerevisiae) (UniProt P47079). The description is as above.

Consider Hsp110 (from UniProt Q92598 1-858), for which the binding entry with HA-HIRA (human) and in the assay with Mis12-GFP was “binds” throughout.
With Hsc70 (from UniProt P11142 1-646), the binding result with HA-HIRA (human), in the assay with FLAG-Lonp-1 and in the assay with Mis12-GFP was “binds” throughout.
Consider “Hir2 (endogenous, HIR complex component) (from UniProt P32480 1-875)”, for which the binding result in assay [1] is “binds”.
For “Cct8 (endogenous) (from UniProt P47079 1-568)”, in assay [1], the binding entry is on record as “binds”.
For “Ssa1 wild type, epitope-tagged (FLAG-Ssa1, GFP-Ssa1, HA-Ssa1) (from UniProt P10591 1-642)”, the binding result in [2] was “binds”.
Take Hsp82 (from UniProt P02829 1-709): the binding entry in assay [3], in assay [4], in [5], in [6], in assay [7] and in [8] was “binds” each time.
For the substance DNAJA1 (from UniProt P31689 1-397), the binding entry in the assay with HA-HIRA (human), with FLAG-Lonp-1 and with Mis12-GFP was “binds” throughout.
